Experimental data as given in publication PMC12690290.

T1: mesoheme–rabbit hemopexin (1:1 heme–HPX complex) (rabbit) (UniProt P20058)
T1 sequence: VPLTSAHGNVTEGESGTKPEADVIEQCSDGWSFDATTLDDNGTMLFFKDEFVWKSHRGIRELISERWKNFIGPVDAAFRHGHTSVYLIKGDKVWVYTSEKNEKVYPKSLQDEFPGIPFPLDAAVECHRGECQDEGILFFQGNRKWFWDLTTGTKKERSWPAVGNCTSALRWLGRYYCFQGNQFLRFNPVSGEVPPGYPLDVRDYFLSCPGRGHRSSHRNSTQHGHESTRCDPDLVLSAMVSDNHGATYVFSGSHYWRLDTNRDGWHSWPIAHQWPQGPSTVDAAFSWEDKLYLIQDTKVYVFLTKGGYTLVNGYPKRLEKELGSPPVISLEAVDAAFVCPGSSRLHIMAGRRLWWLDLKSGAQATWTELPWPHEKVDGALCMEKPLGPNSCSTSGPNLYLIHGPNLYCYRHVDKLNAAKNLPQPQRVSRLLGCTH


Target: T1, mesoheme–rabbit hemopexin (1:1 heme–HPX complex) (rabbit)
Test: affinity purification with mass spectrometry; proto-heme–human HPX, mesoheme–rabbit HPX or holo-human Tf Affi-Gel 15; detergent extracts of primary human hepatocytes; proteins found on underivatized, mouse IgG or ovalbumin resins filtered out; only the target purified

| Binder | binding |
| --- | --- |
| C1 inhibitor (protein, UniProt P05155 23-500) NPNATSSSSQDPESLQDRGEGKVATTVISKMLFVEPILEVSSLPTTNSTTNSATKITANTTDEPTTQPTTEPTTQPTIQPTQPTTQLPTDSPTQPTTGSFCPGPVTLCSDLESHSTEAVLGDALVDFSLKLYHAFSAMKKVETNMAFSPFSIASLLTQVLLGAGENTKTNLESILSYPKDFTCVHQALKGFTTKGVTSVSQIFHSPDLAIRDTFVNASRTLYSSSPRVLSNNSDANLELINTWVAKNTNNKISRLLDSLPSDTRLVLLNAIYLSAKWKTTFDPKKTRMEPFHFKNSVIKVPMMNSKKYPVAHFIDQTLKAKVGQLQLSHNLSLVILVPQNLKHRLEDMEQALSPSVFKAIMEKLEMSKFQPTLLTLPRIKVTTSQDMLSIMEKLEFFDFSYDLNLCGLTEDPDLQVSAMQHQTVLELTETGVEAAAASAISVARTLLVFEVQQPFLFVLWDQQHKFPVFMGRVYDPRA | binds |
| Dopamine β-hydroxylase (enzyme, UniProt P09172 1-617) MPALSRWASLPGPSMREAAFMYSTAVAIFLVILVAALQGSAPRESPLPYHIPLDPEGSLELSWNVSYTQEAIHFQLLVRRLKAGVLFGMSDRGELENADLVVLWTDGDTAYFADAWSDQKGQIHLDPQQDYQLLQVQRTPEGLTLLFKRPFGTCDPKDYLIEDGTVHLVYGILEEPFRSLEAINGSGLQMGLQRVQLLKPNIPEPELPSDACTMEVQAPNIQIPSQETTYWCYIKELPKGFSRHHIIKYEPIVTKGNEALVHHMEVFQCAPEMDSVPHFSGPCDSKMKPDRLNYCRHVLAAWALGAKAFYYPEEAGLAFGGPGSSRYLRLEVHYHNPLVIEGRNDSSGIRLYYTAKLRRFNAGIMELGLVYTPVMAIPPRETAFILTGYCTDKCTQLALPPSGIHIFASQLHTHLTGRKVVTVLVRDGREWEIVNQDNHYSPHFQEIRMLKKVVSVHPGDVLITSCTYNTEDRELATVGGFGILEEMCVNYVHYYPQTQLELCKSAVDAGFLQKYFHLINRFNNEDVCTCPQASVSQQFTSVPWNSFNRDVLKALYSFAPISMHCNKSSAVRFQGEWNLQPLPKVISTLEEPTPQCPTSQGRSPAGPTVVSIGGGKG | binds |
| Cystatin E/M (protein, UniProt Q15828 29-149) RPQERMVGELRDLSPDDPQVQKAAQAAVASYNMGSNSIYYFRDTHIIKAQSQLVAGIKYFLTMEMGSTDCRKTRVTGDHVDLTTCPLAAGAQQEKLRCDFEVLVVPWQNSSQLLKHNCVQM | binds |
| Amine oxidase, copper containing 3 (enzyme, UniProt Q16853 1-763) MNQKTILVLLILAVITIFALVCVLLVGRGGDGGEPSQLPHCPSVSPSAQPWTHPGQSQLFADLSREELTAVMRFLTQRLGPGLVDAAQARPSDNCVFSVELQLPPKAAALAHLDRGSPPPAREALAIVFFGRQPQPNVSELVVGPLPHPSYMRDVTVERHGGPLPYHRRPVLFQEYLDIDQMIFNRELPQASGLLHHCCFYKHRGRNLVTMTTAPRGLQSGDRATWFGLYYNISGAGFFLHHVGLELLVNHKALDPARWTIQKVFYQGRYYDSLAQLEAQFEAGLVNVVLIPDNGTGGSWSLKSPVPPGPAPPLQFYPQGPRFSVQGSRVASSLWTFSFGLGAFSGPRIFDVRFQGERLVYEISLQEALAIYGGNSPAAMTTRYVDGGFGMGKYTTPLTRGVDCPYLATYVDWHFLLESQAPKTIRDAFCVFEQNQGLPLRRHHSDLYSHYFGGLAETVLVVRSMSTLLNYDYVWDTVFHPSGAIEIRFYATGYISSAFLFGATGKYGNQVSEHTLGTVHTHSAHFKVDLDVAGLENWVWAEDMVFVPMAVPWSPEHQLQRLQVTRKLLEMEEQAAFLVGSATPRYLYLASNHSNKWGHPRGYRIQMLSFAGEPLPQNSSMARGFSWERYQLAVTQRKEEEPSSSSVFNQNDPWAPTVDFSDFINNETIAGKDLVAWVTAGFLHIPHAEDIPNTVTVGNGVGFFLRPYNFFDEDPSFYSADSIYFRGDQDAGACEVNPLACLPQAAACAPDLPAFSHGGFSHN | binds |

The remaining lines, values ahead:

| binding | Binder |
| --- | --- |
| binds | Prolyl carboxypeptidase (enzyme, UniProt P42785 46-496) KNYSVLYFQQKVDHFGFNTVKTFNQRYLVADKYWKKNGGSILFYTGNEGDIIWFCNNTGFMWDVAEELKAMLVFAEHRYYGESLPFGDNSFKDSRHLNFLTSEQALADFAELIKHLKRTIPGAENQPVIAIGGSYGGMLAAWFRMKYPHMVVGALAASAPIWQFEDLVPCGVFMKIVTTDFRKSGPHCSESIHRSWDAINRLSNTGSGLQWLTGALHLCSPLTSQDIQHLKDWISETWVNLAMVDYPYASNFLQPLPAWPIKVVCQYLKNPNVSDSLLLQNIFQALNVYYNYSGQVKCLNISETATSSLGTLGWSYQACTEVVMPFCTNGVDDMFEPHSWNLKELSDDCFQQWGVRPRPSWITTMYGGKNISSHTNIVFSNGELDPWSGGGVTKDITDTLVAVTISEGAHHLDLRTKNALDPMSVLLARSLEVRHMKNWIRDFYDSAGKQH |
| binds | Hexose-6-phosphate Dehydrogenase (enzyme, UniProt O95479 20-791) QELQGHVSIILLGATGDLAKKYLWQGLFQLYLDEAGRGHSFSFHGAALTAPKQGQELMAKALESLSCPKDMAPSHCAEHKDQFLQLSQYRQLKTAEDYQALNKDIEAQLQHAGLREAGRIFYFSVPPFAYEDIARNINSSCRPGPGAWLRVVLEKPFGHDHFSAQQLATELGTFFQEEEMYRVDHYLGKQAVAQILPFRDQNRKALDGLWNRHHVERVEIIMKETVDAEGRTSFYEEYGVIRDVLQNHLTEVLTLVAMELPHNVSSAEAVLRHKLQVFQALRGLQRGSAVVGQYQSYSEQVRRELQKPDSFHSLTPTFAAVLVHIDNLRWEGVPFILMSGKALDERVGYARILFKNQACCVQSEKHWAAAQSQCLPRQLVFHIGHGDLGSPAVLVSRNLFRPSLPSSWKEMEGPPGLRLFGSPLSDYYAYSPVRERDAHSVLLSHIFHGRKNFFITTENLLASWNFWTPLLESLAHKAPRLYPGGAENGRLLDFEFSSGRLFFSQQQPEQLVPGPGPAPMPSDFQVLRAKYRESPLVSAWSEELISKLANDIEATAVRAVRRFGQFHLALSGGSSPVALFQQLATAHYGFPWAHTHLWLVDERCVPLSDPESNFQGLQAHLLQHVRIPYYNIHPMPVHLQQRLCAEEDQGAQIYAREISALVANSSFDLVLLGMGADGHTASLFPQSPTGLDGEQLVVLTTSPSQPHRRMSLSLPLINRAKKVAVLVMGRMKREITTLVSRVGHEPKKWPISGVLPHSGQLVWYMDYDAFLG |
| binds | Selenoprotein P (protein, UniProt P49908 20-381) ESQDQSSLCKQPPAWSIRDQDPMLNSNGSVTVVALLQASUYLCILQASKLEDLRVKLKKEGYSNISYIVVNHQGISSRLKYTHLKNKVSEHIPVYQQEENQTDVWTLLNGSKDDFLIYDRCGRLVYHLGLPFSFLTFPYVEEAIKIAYCEKKCGNCSLTTLKDEDFCKRVSLATVDKTVETPSPHYHHEHHHNHGHQHLGSSELSENQQPGAPNAPTHPAPPGLHHHHKHKGQHRQGHPENRDMPASEDLQDLQKKLCRKRCINQLLCKLPTDSELAPRSUCCHCRHLIFEKTGSAITUQCKENLPSLCSUQGLRAEENITESCQURLPPAAUQISQQLIPTEASASURUKNQAKKUEUPSN |
| binds | Kallistatin (protein, UniProt P29622 21-427) QLHVEHDGESCSNSSHQQILETGEGSPSLKIAPANADFAFRFYYLIASETPGKNIFFSPLSISAAYAMLSLGACSHSRSQILEGLGFNLTELSESDVHRGFQHLLHTLNLPGHGLETRVGSALFLSHNLKFLAKFLNDTMAVYEAKLFHTNFYDTVGTIQLINDHVKKETRGKIVDLVSELKKDVLMVLVNYIYFKALWEKPFISSRTTPKDFYVDENTTVRVPMMLQDQEHHWYLHDRYLPCSVLRMDYKGDATVFFILPNQGKMREIEEVLTPEMLMRWNNLLRKRNFYKKLELHLPKFSISGSYVLDQILPRLGFTDLFSKWADLSGITKQQKLEASKSFHKATLDVDEAGTEAAAATSFAIKFFSAQTNRHILRFNRPFLVVIFSTSTQSVLFLGKVVDPTKP |

Results are given in words; binding and its absence hold for the method and conditions named. In cells and extracts the contact can be indirect. These calls come from enrichment with a bait or labelling near it, and not all partners need be listed.
